From patent US20250177555A1 (priority 2022, published 2025)
Counter-ions that a name gives are not always drawn. At least one structure is not confirmed: it was looked up by name or label, or the drawing left a doubt.

How the values were obtained:
[1] = test system: CNV-G gectosome uptake, 293ColorSwitch cells; format: cell-based
[2] = test system: VSV-G gectosome uptake, 293ColorSwitch cells; format: cell-based; settings: Cre cargo

COc1cc2c3cc1Oc1c(OC)c(OC)cc4c1[C@@H](Cc1ccc(O)c(c1)Oc1ccc(cc1)C[C@@H]3N(C)CC2)N(C)CC4 [Berbamine HCl]
inhibition of CNV-G gectosome uptake [1]: specifically inhibit | inhibition of VSV-G gectosome uptake [2]: NOT VSV-G gectosome uptake
